This data set can be described thus: general procedure: hybrid (solid and solution phase) peptide synthesis; 2-chlorotrityl chloride resin (super acid sensitive); HBTU/HOBT/DIEA (solid phase); HBTU/HOAT/EtPr2N (solution phase).

As for “Fmoc-Asp(tBu)-Lys(Boc)-Trp(Boc)-Ala-Ser(tBu)-Leu-Trp(Boc)-Asn(trt)-Trp(Boc)-Phe-NH2”, where the note is “coupling step”, the step yield is reported as 100% and the “crude HPLC purity” value was found to be 93 A %.
For “Fmoc-Glu(OtBu)-Lys(Boc)-Asn(trt)-Glu(OtBu)-Gln(trt)- Glu(OtBu)-Leu-Leu-Glu(OtBu)-Leu-Asp(tBu)-Lys(Boc)-Trp(Boc)-Ala-Ser(tBu)-Leu-Trp(Boc)-Asn(trt)-Trp(Boc)-Phe-NH2”, where the note is “coupling step”, the step yield was found to be 90% and the “final HPLC purity” value was 95.5 A %.
The matching figures for “Fmoc-Ile-Glu(OtBu)-Glu(OtBu)-Ser(tBu)-Gln(trt)-Asn(trt)-Gln(trt)-Gln-OPNB”: 100% and 91-94%.
The matching figures for “Fmoc-Tyr(tBu)-Thr(tBu)-Ser(tBu)-Leu-Ile-His(trt)-Ser(tBu)-Leu-Ile-Glu(OtBu)-Glu(OtBu)-Ser(tBu)-Gln(trt)-Asn(trt)-Gln(trt)-Gln-OPNB”: 92% and 90 A %.
Turning to “H-Asp(tBu)-Lys(Boc)-Trp(Boc)-Ala-Ser(tBu)-Leu-Trp(Boc)-Asn(trt)-Trp(Boc)-NH2”, under “late stage modification step”, the step yield came to 89.6% and the “crude HPLC purity” value is on record as 95%.

(Values after US6015881 (dated 2000).)
